From US20150050211A1 (UNIVERSITY OF SOUTHERN CALIFORNIA, published 2015)
No constants are given. Whether binding was seen depends on the method and setting. Some entries that bind do so weakly or less than the wild type.

Amino acid sequences for entries named in this document (tags omitted).
UniProt P63096: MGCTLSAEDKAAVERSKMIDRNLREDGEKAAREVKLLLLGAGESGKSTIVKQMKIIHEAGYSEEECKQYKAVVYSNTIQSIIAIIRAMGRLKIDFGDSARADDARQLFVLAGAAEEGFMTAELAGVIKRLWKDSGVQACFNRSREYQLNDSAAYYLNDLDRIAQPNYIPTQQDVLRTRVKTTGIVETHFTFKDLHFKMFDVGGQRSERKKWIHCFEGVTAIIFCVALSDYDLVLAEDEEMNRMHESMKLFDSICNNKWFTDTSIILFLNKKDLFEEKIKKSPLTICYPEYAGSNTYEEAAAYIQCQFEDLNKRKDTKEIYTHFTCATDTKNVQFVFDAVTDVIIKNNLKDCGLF

How the values were obtained:
Gαi1 [1] = biological target: Gαi1 (UniProt P63096); assay: general statement in Experiment No. 4; no assay named there
Gαi1 [2] = biological target: Gαi1 (UniProt P63096); assay: pull-down of radiolabeled Gα subunit by biotinylated peptide on NeutrAvidin-agarose, scintillation counting

Binder: MITWYEFVAGTK (cyclized from the lysine side chain to the N-terminus; biotin at the C-terminus) [C-terminally biotinylated cycGIBP]
- binding (Gαi1 [1]): binds
- binding (Gαi1 [2]): binds
